Assay results reported in article PMC10818623, “Assessing Trans-Inhibition of OATP1B1 and OATP1B3 by Calcineurin and/or PPIase Inhibitors and Global Identification of OATP1B1/3-Associated Proteins” (Pharmaceutics, 2023).
No constants are given. Whether binding was seen depends on the method and setting. In cells and extracts the contact can be indirect. A yes stands for co-enrichment or nearness to the bait. Other partners may have been found. For some of these results: No binding means not detected with the bait. Sequences can lack the tags named with a protein.

T1: FLAG-tagged OATP1B1 (organic anion transporting polypeptide 1B1) (UniProt Q9Y6L6)
T1 sequence: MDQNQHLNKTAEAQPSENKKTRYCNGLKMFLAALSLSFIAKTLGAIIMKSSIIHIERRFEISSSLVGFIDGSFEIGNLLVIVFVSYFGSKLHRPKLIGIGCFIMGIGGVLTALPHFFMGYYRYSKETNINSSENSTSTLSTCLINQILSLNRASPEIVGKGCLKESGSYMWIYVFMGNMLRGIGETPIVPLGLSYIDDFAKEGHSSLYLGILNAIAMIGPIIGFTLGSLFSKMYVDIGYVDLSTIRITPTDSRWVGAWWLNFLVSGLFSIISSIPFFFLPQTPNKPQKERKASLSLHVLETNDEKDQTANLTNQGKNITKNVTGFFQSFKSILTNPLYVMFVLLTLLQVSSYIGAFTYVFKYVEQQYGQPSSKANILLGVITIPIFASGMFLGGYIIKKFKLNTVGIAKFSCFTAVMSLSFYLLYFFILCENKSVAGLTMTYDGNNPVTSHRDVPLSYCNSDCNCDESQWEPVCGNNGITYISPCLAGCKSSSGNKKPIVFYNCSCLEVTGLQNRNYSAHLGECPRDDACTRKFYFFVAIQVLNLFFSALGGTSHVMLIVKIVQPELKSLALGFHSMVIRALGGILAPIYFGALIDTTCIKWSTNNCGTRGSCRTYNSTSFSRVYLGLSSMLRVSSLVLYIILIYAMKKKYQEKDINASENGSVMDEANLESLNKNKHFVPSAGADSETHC

T2: FLAG-tagged OATP1B3 (organic anion transporting polypeptide 1B3) (UniProt Q9NPD5)
T2 sequence: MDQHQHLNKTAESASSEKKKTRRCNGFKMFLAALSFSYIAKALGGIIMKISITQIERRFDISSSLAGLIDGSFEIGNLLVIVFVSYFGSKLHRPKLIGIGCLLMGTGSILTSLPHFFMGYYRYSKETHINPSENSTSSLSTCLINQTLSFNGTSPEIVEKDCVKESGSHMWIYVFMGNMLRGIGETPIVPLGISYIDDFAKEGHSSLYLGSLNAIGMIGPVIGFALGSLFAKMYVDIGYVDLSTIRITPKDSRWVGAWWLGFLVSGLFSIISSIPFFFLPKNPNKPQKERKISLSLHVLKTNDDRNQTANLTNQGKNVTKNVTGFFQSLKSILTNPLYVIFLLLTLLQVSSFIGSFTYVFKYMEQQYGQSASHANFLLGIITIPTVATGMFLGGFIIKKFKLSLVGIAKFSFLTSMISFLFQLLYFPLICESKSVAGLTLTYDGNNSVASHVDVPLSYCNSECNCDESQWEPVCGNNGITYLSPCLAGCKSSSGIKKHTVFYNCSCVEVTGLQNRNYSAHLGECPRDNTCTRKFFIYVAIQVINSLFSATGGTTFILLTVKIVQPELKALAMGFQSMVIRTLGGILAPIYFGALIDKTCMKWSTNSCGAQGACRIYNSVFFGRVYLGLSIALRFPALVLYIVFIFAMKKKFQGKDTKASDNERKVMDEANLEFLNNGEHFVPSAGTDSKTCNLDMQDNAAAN


What was measured:
[1] = target: T1, FLAG-tagged OATP1B1 (organic anion transporting polypeptide 1B1); assay: affinity purification with mass spectrometry; FLAG-IP (M2 resin, overnight, 4 °C) from whole cell lysates of HEK293-FLAG-OATP1B1, HEK293-FLAG-OATP1B3 and HEK293-Mock cells; lysis buffer 50 mM Tris-HCl pH 7.4, 150 mM NaCl, 1 mM EDTA, 1% Triton X-100; seven washes; elution in SDS sample buffer at 60 °C; LC-MS/MS; N = 1; no drug treatment
[2] = target: T2, FLAG-tagged OATP1B3 (organic anion transporting polypeptide 1B3); assay: as above

binding [1]	binding [2]	Binder
binds	binds	Cyclin-G-associated kinase (enzyme, UniProt O14976 1-1311) MSLLQSALDFLAGPGSLGGASGRDQSDFVGQTVELGELRLRVRRVLAEGGFAFVYEAQDVGSGREYALKRLLSNEEEKNRAIIQEVCFMKKLSGHPNIVQFCSAASIGKEESDTGQAEFLLLTELCKGQLVEFLKKMESRGPLSCDTVLKIFYQTCRAVQHMHRQKPPIIHRDLKVENLLLSNQGTIKLCDFGSATTISHYPDYSWSAQRRALVEEEITRNTTPMYRTPEIIDLYSNFPIGEKQDIWALGCILYLLCFRQHPFEDGAKLRIVNGKYSIPPHDTQYTVFHSLIRAMLQVNPEERLSIAEVVHQLQEIAAARNVNPKSPITELLEQNGGYGSATLSRGPPPPVGPAGSGYSGGLALAEYDQPYGGFLDILRGGTERLFTNLKDTSSKVIQSVANYAKGDLDISYITSRIAVMSFPAEGVESALKNNIEDVRLFLDSKHPGHYAVYNLSPRTYRPSRFHNRVSECGWAARRAPHLHTLYNICRNMHAWLRQDHKNVCVVHCMDGRAASAVAVCSFLCFCRLFSTAEAAVYMFSMKRCPPGIWPSHKRYIEYMCDMVAEEPITPHSKPILVRAVVMTPVPLFSKQRSGCRPFCEVYVGDERVASTSQEYDKMRDFKIEDGKAVIPLGVTVQGDVLIVIYHARSTLGGRLQAKMASMKMFQIQFHTGFVPRNATTVKFAKYDLDACDIQEKYPDLFQVNLEVEVEPRDRPSREAPPWENSSMRGLNPKILFSSREEQQDILSKFGKPELPRQPGSTAQYDAGAGSPEAEPTDSDSPPSSSADASRFLHTLDWQEEKEAETGAENASSKESESALMEDRDESEVSDEGGSPISSEGQEPRADPEPPGLAAGLVQQDLVFEVETPAVLPEPVPQEDGVDLLGLHSEVGAGPAVPPQACKAPSSNTDLLSCLLGPPEAASQGPPEDLLSEDPLLLASPAPPLSVQSTPRGGPPAAADPFGPLLPSSGNNSQPCSNPDLFGEFLNSDSVTVPPSFPSAHSAPPPSCSADFLHLGDLPGEPSKMTASSSNPDLLGGWAAWTETAASAVAPTPATEGPLFSPGGQPAPCGSQASWTKSQNPDPFADLGDLSSGLQGSPAGFPPGGFIPKTATTPKGSSSWQTSRPPAQGASWPPQAKPPPKACTQPRPNYASNFSVIGAREERGVRAPSFAQKPKVSENDFEDLLSNQGFSSRSDKKGPKTIAEMRKQDLAKDTDPLKLKLLDWIEGKERNIRALLSTLHTVLWDGESRWTPVGMADLVAPEQVKKHYRRAVLAVHPDKAAGQPYEQHAKMIFMELNDAWSEFENQGSRPLF
binds	binds	3-phosphoinositide-dependent protein kinase 1 (enzyme, UniProt O15530 1-556) MARTTSQLYDAVPIQSSVVLCSCPSPSMVRTQTESSTPPGIPGGSRQGPAMDGTAAEPRPGAGSLQHAQPPPQPRKKRPEDFKFGKILGEGSFSTVVLARELATSREYAIKILEKRHIIKENKVPYVTRERDVMSRLDHPFFVKLYFTFQDDEKLYFGLSYAKNGELLKYIRKIGSFDETCTRFYTAEIVSALEYLHGKGIIHRDLKPENILLNEDMHIQITDFGTAKVLSPESKQARANSFVGTAQYVSPELLTEKSACKSSDLWALGCIIYQLVAGLPPFRAGNEYLIFQKIIKLEYDFPEKFFPKARDLVEKLLVLDATKRLGCEEMEGYGPLKAHPFFESVTWENLHQQTPPKLTAYLPAMSEDDEDCYGNYDNLLSQFGCMQVSSSSSSHSLSASDTGLPQRSGSNIEQYIHDLDSNSFELDLQFSEDEKRLLLEKQAGGNPWHQFVENNLILKMGPVDKRKGLFARRRQLLLTEGPHLYYVDPVNKVLKGEIPWSQELRPEAKNFKTFFVHTPNRTYYLMDPSGNAHKWCRKIQEVWRQRYQSHPDAAVQ

Continued, binder first:

Binder	binding [1]	binding [2]
Ubiquitin conjugation factor E4 A (enzyme, UniProt Q14139 1-1066) MTDQENNNNISSNPFAALFGSLADAKQFAAIQKEQLKQQSDELPASPDDSDNSVSESLDEFDYSVAEISRSFRSQQEICEQLNINHMIQRIFLITLDNSDPSLKSGNGIPSRCVYLEEMAVELEDQDWLDMSNVEQALFARLLLQDPGNHLINMTSSTTLNLSADRDAGERHIFCYLYSCFQRAKEEITKVPENLLPFAVQCRNLTVSNTRTVLLTPEIYVDQNIHEQLVDLMLEAIQGAHFEDVTEFLEEVIEALILDEEVRTFPEVMIPVFDILLGRIKDLELCQILLYAYLDILLYFTRQKDMAKVFVEYIQPKDPTNGQMYQKTLLGVILSISCLLKTPGVVENHGYFLNPSRSSPQEIKVQEANIHQFMAQFHEKIYQMLKNLLQLSPETKHCILSWLGNCLHANAGRTKIWANQMPEIFFQMYASDAFFLNLGAALLKLCQPFCKPRSSRLLTFNPTYCALKELNDEERKIKNVHMRGLDKETCLIPAVQEPKFPQNYNLVTENLALTEYTLYLGFHRLHDQMVKINQNLHRLQVAWRDAQQSSSPAADNLREQFERLMTIYLSTKTAMTEPQMLQNCLNLQVSMAVLLVQLAIGNEGSQPIELTFPLPDGYSSLAYVPEFFADNLGDFLIFLRRFADDILETSADSLEHVLHFITIFTGSIERMKNPHLRAKLAEVLEAVMPHLDQTPNPLVSSVFHRKRVFCNFQYAPQLAEALIKVFVDIEFTGDPHQFEQKFNYRRPMYPILRYMWGTDTYRESIKDLADYASKNLEAMNPPLFLRFLNLLMNDAIFLLDEAIQYLSKIKIQQIEKDRGEWDSLTPEARREKEAGLQMFGQLARFHNIMSNETIGTLAFLTSEIKSLFVHPFLAERIISMLNYFLQHLVGPKMGALKVKDFSEFDFKPQQLVSDICTIYLNLGDEENFCATVPKDGRSYSPTLFAQTVRVLKKINKPGNMIMAFSNLAERIKSLADLQQQEEETYADACDEFLDPIMSTLMCDPVVLPSSRVTVDRSTIARHLLSDQTDPFNRSPLTMDQIRPNTELKEKIQRWLAERKQQKEQLE	binds	no binding
Serine/threonine-protein kinase TNNI3K (enzyme, UniProt Q59H18 1-835) MGNYKSRPTQTCTDEWKKKVSESYVITIERLEDDLQIKEKELTELRNIFGSDEAFSKVNLNYRTENGLSLLHLCCICGGKKSHIRTLMLKGLRPSRLTRNGFTALHLAVYKDNAELITSLLHSGADIQQVGYGGLTALHIATIAGHLEAADVLLQHGANVNIQDAVFFTPLHIAAYYGHEQVTRLLLKFGADVNVSGEVGDRPLHLASAKGFLNIAKLLMEEGSKADVNAQDNEDHVPLHFCSRFGHHDIVKYLLQSDLEVQPHVVNIYGDTPLHLACYNGKFEVAKEIIQISGTESLTKENIFSETAFHSACTYGKSIDLVKFLLDQNVININHQGRDGHTGLHSACYHGHIRLVQFLLDNGADMNLVACDPSRSSGEKDEQTCLMWAYEKGHDAIVTLLKHYKRPQDELPCNEYSQPGGDGSYVSVPSPLGKIKSMTKEKADILLLRAGLPSHFHLQLSEIEFHEIIGSGSFGKVYKGRCRNKIVAIKRYRANTYCSKSDVDMFCREVSILCQLNHPCVIQFVGACLNDPSQFAIVTQYISGGSLFSLLHEQKRILDLQSKLIIAVDVAKGMEYLHNLTQPIIHRDLNSHNILLYEDGHAVVADFGESRFLQSLDEDNMTKQPGNLRWMAPEVFTQCTRYTIKADVFSYALCLWEILTGEIPFAHLKPAAAAADMAYHHIRPPIGYSIPKPISSLLIRGWNACPEGRPEFSEVVMKLEECLCNIELMSPASSNSSGSLSPSSSSDCLVNRGGPGRSHVAALRSRFELEYALNARSYAALSQSAGQYSSQGLSLEEMKRSLQYTPIDKYGYVSDPMSSMHFHSCRNSSSFEDSS	binds	no binding
Serine/threonine-protein kinase 17A (enzyme, UniProt Q9UEE5 1-414) MIPLEKPGSGGSSPGATSGSGRAGRGLSGPCRPPPPPQARGLLTEIRAVVRTEPFQDGYSLCPGRELGRGKFAVVRKCIKKDSGKEFAAKFMRKRRKGQDCRMEIIHEIAVLELAQDNPWVINLHEVYETASEMILVLEYAAGGEIFDQCVADREEAFKEKDVQRLMRQILEGVHFLHTRDVVHLDLKPQNILLTSESPLGDIKIVDFGLSRILKNSEELREIMGTPEYVAPEILSYDPISMATDMWSIGVLTYVMLTGISPFLGNDKQETFLNISQMNLSYSEEEFDVLSESAVDFIRTLLVKKPEDRATAEECLKHPWLTQSSIQEPSFRMEKALEEANALQEGHSVPEINSDTDKSETKESIVTEELIVVTSYTLGQCRQSEKEKMEQKAISKRFKFEEPLLQEIPGEFIY	binds	no binding
